1 compound from ChEMBL document CHEMBL5321243, “The Cytotoxic Cardiac Glycoside (-)-Cryptanoside A from the Stems of Cryptolepis dubia and Its Molecular Targets” (J Nat Prod, 2023) can be followed below.

SMILES strings stand for the structures.

The test has as its system MDA-MB-231. The test can be described thus: Cytotoxicity against human MDA-MB-231 cells incubated for 72 hrs by Cell titer blue assay. It counts as functional, cell-based. As to conditions: MDA-MB-231, 72 h. A digest of the protocol:
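Cells grown in RPMI 1640 with 10% FBS, penicillin and streptomycin at 37 °C, 5% CO₂; 5,000 log-phase cells per well seeded, left overnight, then exposed 72 h to serial dilutions from DMSO (DMSO vehicle; paclitaxel positive control). Viability read by CellTiter-Blue absorbance; IC50 relative to vehicle by nonlinear regression; triplicate, three independent experiments.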
(The colour change of resazurin is a common sign of viable cells or microbes.)

With `CC(=O)O[C@H]1C(=O)[C@@]2(C)[C@H]([C@H](OC(=O)c3ccccc3)[C@]3(O)C[C@H](OC(=O)[C@H](O)[C@@H](NC(=O)c4ccccc4)c4ccccc4)C(C)=C1C3(C)C)[C@]1(OC(C)=O)CO[C@@H]1C[C@@H]2O` [PACLITAXEL], the IC50 (commonly the concentration at which inhibition is half-maximal) was 3.8 µM.
